Measured values reported in patent US12503455B2, “Nucleic acid-binding photoprobes and uses thereof” (Arrakis Therapeutics, Inc., priority 2017, dated 2025).

Tested on: Aptamer 21
Test: Next generation sequencing of ARK-547 cross-linked Aptamer 21 (RT pausing, mutation rate)
Format: binding
Method: A 9.5 μL sample of folded RNA (2.6 μM) in buffer (20 mM TrisHCl pH 8, 100 mM KCl, 3 mM MgCl2) was added to a 0.5 μL aliquot of 1 mM ARK-547 in DMSO. The reaction was incubated for 10 min at 37° C., irradiated with long wave UV light (˜365 nm) for 30 min in a UV crosslinker (Fisher Scientific), and then kept on ice.
The samples of cross-linked RNA were diluted to a final volume of 20 μL and final reaction conditions of 1×T4 RNA ligase buffer (New England Biolabs), 5 U/μL T4 RNA ligase 2, truncated KQ (New England Biolabs), 16.5% PEG-8000, and 0.5 μM universal miRNA cloning linker (New England Biolabs). The reaction was incubated in a thermal cycler for 2.5 h cycling between 5 min at 16° C. and 3 min at 25° C. The RNA was then purified using Agencourt AMPure XP beads (Beckman Coulter) using the standard protocol from the manufacturer. The RNA was eluted with 20 μL of nuclease-free water.
A 10 μL aliquot of the eluted RNA sample was mixed with a 1 μL aliquot of 2 μM PEARLv2_RT primer, heated to 65° C. for 5 min, and then cooled on ice. […]
To remove excess primer, the sample was mixed with 4.5 μL of ExoSAP-IT, incubated at 37° C. for 15 min, and then quenched with 1 μL of 0.5 M EDTA pH 8. […] The concentration was determined by absorbance at 260 nm. […]
The concentrations of different PCR products were measured using the Denovix dsDNA fluorescence quantitation kit (Denovix) and multiplexed at equal concentrations with a 20% PhiX spike-in. Sequencing was performed on an Illumina MiSeq with 150 bp paired-end reads using the standard manufacturer protocol.
Sites of interaction between probe and transcripts were defined by reverse transcriptase (RT) stalling sites. RT stalling sites were defined based upon the mapped position of the 5′ end of a trimmed read. For short defined transcripts such as Aptamer 21, high-confidence RT stall sites were defined from reads with 3′ ends mapping to the precise transcript end. […]

`COC(=O)C1=C(COCc2cn(CCOCCOCCNC(=O)CCC3(C)N=N3)nn2)NC(c2ccncc2)=NC1c1ccc(F)cc1Cl` (stereo not drawn) [ARK-547] was tested, and the “position of maximal reverse transcriptase (RT) pausing” value was 59 nt, the “MaP signal positions in sequencing of cross-linked Aptamer 21” value (nucleotide position) was 43 and 60 and the “selective drop-off position in sequencing of cross-linked Aptamer 21” value (nucleotide position) was 60.

Values joined by “and” are separate entries in the source; they are usually repeats but may differ in a detail not shown here. Equal values may be shown once.
